# In PubChem BioAssay AID1347426 (Functional Genomics Laboratory (NCATS/FGL), 2020):
# Screen size: about 31,000 sequences; about 1,400 (4.5%) were called active.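 The calls were made as follows: active = median seed-adjusted z-score above 1 or below -1; inactive = the rest.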 This is one part of the list.
# Experiment: Novel Modifiers of Survival Motor Neuron (SMN) Protein: Gene Identification via Genome-wide siRNA Screen;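 also: luminescence tracks full-length SMN protein made from the SMN2 reporter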
# Conditions: HEK293T SMN2-luciferase reporter, siRNA knockdown, 72 h; actives lie on both sides
# How it was run: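 Each of three siRNAs per gene is reverse-transfected (1 pmol) into reporter HEK293T cells whose luciferase output tracks SMN protein level. After 72 h culture, ONE-Glo luminescence is control-normalized, log10-transformed and MAD-standardized; Common Seed Analysis deprioritizes seed-driven hits.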
row,Sequence,median seed-adjusted z-score
1,CCCAAUUCAGAUUACUACATT against POLN,inactive: -0.129
2,CCUAUCUUGUGGACAACAATT against PI4K2B,inactive: 0.0345
3,CUAUGGAUGUUGAUGUAGATT against SIN3A,inactive: -0.384
4,GAUGGAGUGUCGGAACUCATT against EIF4EBP1,inactive: -0.161
5,GGGAUUGAGUUAAAACUAUTT against SOX7,inactive: -0.387
6,GUAUCAUAACAUUCGGGUATT against SSH2,inactive: 0.357
7,AGGCUGUUGUUAUAGCUCUTT against ZP4,inactive: 0.0498
8,GAGGGAGAGUAGAUCCACATT against LAIR1,inactive: -0.0897
9,GAAUGGGUUUGAAGGUAGATT against LARS,inactive: -0.788
10,CACUUUAGAUGAUAUCAGATT against PPP3CA,inactive: 0.74
11,GCGUGAAGAUCAAUCAUUUTT against CACNG8,inactive: 0.214
12,CGAUGUAUCUCCUAGGCUATT against COPB2,inactive: -0.61
13,GGAUCGCUGUCUCUAACUUTT against RRM1,active: -5.51
14,ACAAGCACCUAGACCAUGATT against ANGPTL4,active: 1.37
15,CGGGUUUCAUCAAAGUGCATT against RASSF5,inactive: 0.11
16,ACUACUUUGGAAUCCCAUATT against ARSG,inactive: -0.133
17,CUACAGGUUUAUAUCCAUATT against EMG1,inactive: -0.0627
18,CUACAACAUCAACACCUAUTT against OTOG,inactive: -0.344
19,ACCUCUCGGUAGUAGAUCUTT against MCHR1,inactive: -0.42
20,CAAGGGAGGUUAUAGUGAATT against ZNF479,inactive: -0.269
21,GCUUUGGGAUGACCGCUUATT against TSC22D3,inactive: 0.0129
22,GGACACUGAGUUUCUUGAATT against PNMA2,inactive: 0.629

# Looked up above:
# GAUGGAGUGUCGGAACUCATT against EIF4EBP1 – median seed-adjusted z-score: inactive: -0.161
# CUACAACAUCAACACCUAUTT against OTOG – median seed-adjusted z-score: inactive: -0.344
# CAAGGGAGGUUAUAGUGAATT against ZNF479 – median seed-adjusted z-score: inactive: -0.269
# AGGCUGUUGUUAUAGCUCUTT against ZP4 – median seed-adjusted z-score: inactive: 0.0498
# GCUUUGGGAUGACCGCUUATT against TSC22D3 – median seed-adjusted z-score: inactive: 0.0129

# Additional entries follow.

row,Sequence,median seed-adjusted z-score
1,CAUCUAGUGCUGUAACGGATT against RNF111,inactive: -0.0687
2,CGUGCUCUGUGGUAAACGATT against THOP1,inactive: 0.643
3,AGAGGACCCAGAUUGUCUATT against RDBP,inactive: 0.975
4,GACUGUACCGGAUCACAGATT against VAV1,inactive: 0.215
5,ACCACAACAUAGUCAAUUUTT against AUP1,inactive: 0.305
6,GAAAGUCGUGGAUUUCCUATT against TICAM2,inactive: -0.256
7,GAAGAAUGCAGAAACUGUUTT against PARG,inactive: 0
8,GCCUCUACUUCAUAGUGCUTT against GPR141,inactive: -0.777
9,GGAUCUACGUGUACGUCAATT against LPAR3,inactive: -0.3
10,AGGGCUUCAUUAAAGAAGATT against KCNA5,inactive: 0.206
11,CGGUUGCUUCAGGAACUUATT against TGFB1I1,inactive: 0.887
12,GAUAGGAUGUGACAAUGAATT against ING2,inactive: 0.126
13,CCAUAUUGGUGUUGGACGATT against ASAH2,inactive: 0.615
14,GAGUAGCAGUGAUCCUAGATT against SERINC1,inactive: -0.255
15,GGACUUCGCCUACGACUCATT against ETV4,inactive: -0.186
16,UCAGUCCUCUCACCACUUUTT against OAS1,inactive: 0.442
17,GGAGAACUACCAGAACCUUTT against ZNF74,active: 1.17
18,GGAACAGCAUUAUGAUAGATT against CAB39,inactive: -0.144
19,GUACGUUACUGACAAUGAUTT against RCBTB1,inactive: 0
20,CGGUCAUAGUCAAGAUGGATT against KRT85,inactive: -0.126
21,GGACAAAGUAAAUAAUUCATT against ELK4,inactive: 0.235
22,GAAGGAGGCUGAUCCCUGATT against HLA-G,inactive: 0.0348

row,Sequence,median seed-adjusted z-score
1,CCAUGGUACAAGUUGAUGATT against LARP4,inactive: -0.701
2,GCGCUCUACUUGUACCUCATT against GPR157,inactive: 0.152
3,GGCUGAAUUAUGACCGGAATT against PPFIA4,inactive: 0.0399
4,CCAUGCUGUCUAUAGCCUATT against TRPC5,active: -1.14
5,GAGAUGCAGUUGAUGCGAATT against LAMA2,inactive: 0.0733
6,GAAGGUGUUUCAUACGAAUTT against SIPA1L1,inactive: 0.0925
7,GGCUCUCACUGGAAUCUCUTT against SMARCAL1,inactive: -0.145
8,GCAGAGUGAAGGGAGCAAATT against DVL1,inactive: -0.814
9,GGACGAUCACGGAAAUCAUTT against PTPLB,inactive: 0.0451
10,UCGAUAUCCUAGUCUCCAATT against DHRS4,inactive: 0.263
11,GGUGCGUCAUUCUAUAACATT against DNAH11,inactive: 0.104
12,GGACUUGGAGUUUCGCAAATT against LMNB1,inactive: 0.0619
13,AGCCCACGGUCUUCCACUATT against ACPT,inactive: -0.114
14,CAACUUUGAGGUAAAGUCATT against PRPF19,inactive: -0.485
15,CGAUACAUGGUUUUCCGAUTT against ABCB1,inactive: -0.384
16,CAGCUUAAUUUUUACGCAATT against IPMK,inactive: -0.00138
17,AGUCAUCAAAGGUUUUGAATT against FKBP1B,inactive: -0.561
18,CCUCCACUAUGAUCCUUAATT against HES5,inactive: -0.00853
19,GGUGUGAACUGCGAAGUGATT against NOTCH3,inactive: 0.395
20,GGAGUUGUCGUAGACUAUATT against NUP214,inactive: 0.074
21,GCCCUACAGUAAGCACUAUTT against SMYD2,inactive: -0.393
22,AAGGCAAAGUCGACCCAUATT against TSP50,inactive: 0.133

row,Sequence,median seed-adjusted z-score
1,GGCACGGAAUGUUAACACUTT against MAP4K3,inactive: -0.49
2,CAUCUGCUCGUGGACCUCATT against PIGQ,inactive: 0.00996
3,GGUGCUACAUCCUAGAGAATT against SULF2,inactive: -0.109
4,GCUGGUCCCUUGGAUAAGATT against MED1,inactive: -0.855
5,GAUUGUUCCCAACAUUAAATT against MID2,inactive: -0.0363
6,CUAUUAACAUGGUGACAGATT against EIF4A1,active: -1.05
7,GACAAGAGAUCAUUAAAAUTT against COL16A1,inactive: -0.0496
8,GCAACGCAGGUGACACCUATT against MMP25,inactive: 0
9,CAUUGGACAUCAUAGAGUATT against ZSCAN16,inactive: -0.274
10,GGACAUCGAUUUCAACUAATT against MTMR2,inactive: 0.495
11,GAGUUGAGAUUAUCCGAAUTT against STAMBP,inactive: 0.511
12,GAUUUCAUCUUGACCGAAATT against GSTT2,inactive: 0.0298
13,CAUCGUCAAUUACAACUCATT against LHX9,inactive: 0.157
14,GAGUAACUCUUAAUCGCCUTT against LAMC1,inactive: 0.0473
15,GAUACACUCUCUUCCCGAUTT against PTAFR,inactive: 0.302
16,CUACCAAUAUGAUAGGUUATT against DDX17,inactive: 0.231
17,GCAGUUUCUUAACCACGUUTT against IFI16,inactive: -0.0178
18,CAAAAAUGUCUAUUCUUGATT against TRIM27,inactive: -0.378
19,GCCUGGUGUACCUCAGUAATT against MRGPRX2,inactive: 0.0476
20,GAACAGGCCCGAGUACUAATT against GBP3,inactive: -0.864
21,CAUUAUCAGUGACUUUUCUTT against MAS1,inactive: -0.0551
22,CACUACCACUUCUACGAGATT against PLCD4,inactive: -0.4

row,Sequence,median seed-adjusted z-score
1,AAAUGGAUGAGUUGCAAUUTT against PITX1,inactive: 0
2,GAGUCACAGAUCAAGAUUUTT against EN2,inactive: 0.319
3,ACCACUACCUGCUUAUUGATT against ZNF581,inactive: 0.486
4,GAAUGCAAUGGAUCAACUATT against ING3,inactive: 0.192
5,UGGUCUUUUUGAAUACGAUTT against CATSPER2,inactive: -0.653
6,GUAUGAGCAAGGAUACCAATT against HERC6,inactive: 0.324
7,GAAUGAGCAAUUUGACAGATT against SERPINB8,inactive: 0.371
8,GAGACCCUCUGGUUAUAGATT against FKBP11,inactive: -0.085
9,GACCCGUCUUAUUAUCUGATT against PPIL2,inactive: -0.467
10,AGAGUACGCUCAGACACUATT against RBM15B,inactive: -0.183
11,GCUUCAAUUGGUUACCGAATT against KLHL5,inactive: 0.48
12,CCUUCGUCAUGUUUCGGAATT against GRIK3,inactive: 0.128
13,GCUGGUGACUGAGUUUUCATT against NOB1,inactive: -0.0844
14,GGACGGUUACUGCUCAUUUTT against CHAF1B,inactive: 0.634
15,GGAACUCUAUGGUCAUCUATT against SSTR1,inactive: 0.285
16,GCGGAGAAAUGGAAACAUATT against TCF3,inactive: -0.0126
17,GCUUUAUCCUUUCCGUGUATT against SERPINB2,inactive: -0.0739
18,CAUUGAUCGCCGUAGAAAATT against BCLAF1,inactive: -0.823
19,GGUCCUUACUAGCAAUGUUTT against ELF1,inactive: 0.0269
